Paper PMC11387718
Results are given in words; binding and its absence hold for the method and conditions named. Binding seen in cells or lysates may run through a third protein. Some results given as binding are weak or reduced against the parent protein; the word gives no strength.

Chains of the proteins cited; added tags and fusions are not shown. Residues count along the entry.
UniProt Q922H1: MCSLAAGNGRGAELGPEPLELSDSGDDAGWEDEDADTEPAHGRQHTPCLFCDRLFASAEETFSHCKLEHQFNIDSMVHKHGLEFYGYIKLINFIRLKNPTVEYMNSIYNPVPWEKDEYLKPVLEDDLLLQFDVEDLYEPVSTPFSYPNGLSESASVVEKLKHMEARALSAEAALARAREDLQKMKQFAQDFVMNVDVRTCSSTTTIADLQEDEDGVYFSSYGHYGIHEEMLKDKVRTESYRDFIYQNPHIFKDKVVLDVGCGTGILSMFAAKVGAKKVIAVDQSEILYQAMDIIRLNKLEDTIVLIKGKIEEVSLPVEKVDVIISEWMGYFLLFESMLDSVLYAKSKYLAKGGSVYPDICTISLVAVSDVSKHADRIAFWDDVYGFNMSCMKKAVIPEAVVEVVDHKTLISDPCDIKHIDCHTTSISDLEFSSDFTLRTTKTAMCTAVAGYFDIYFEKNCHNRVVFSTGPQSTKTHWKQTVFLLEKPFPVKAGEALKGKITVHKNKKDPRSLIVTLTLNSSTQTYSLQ
UniProt P63038, residues 27-573: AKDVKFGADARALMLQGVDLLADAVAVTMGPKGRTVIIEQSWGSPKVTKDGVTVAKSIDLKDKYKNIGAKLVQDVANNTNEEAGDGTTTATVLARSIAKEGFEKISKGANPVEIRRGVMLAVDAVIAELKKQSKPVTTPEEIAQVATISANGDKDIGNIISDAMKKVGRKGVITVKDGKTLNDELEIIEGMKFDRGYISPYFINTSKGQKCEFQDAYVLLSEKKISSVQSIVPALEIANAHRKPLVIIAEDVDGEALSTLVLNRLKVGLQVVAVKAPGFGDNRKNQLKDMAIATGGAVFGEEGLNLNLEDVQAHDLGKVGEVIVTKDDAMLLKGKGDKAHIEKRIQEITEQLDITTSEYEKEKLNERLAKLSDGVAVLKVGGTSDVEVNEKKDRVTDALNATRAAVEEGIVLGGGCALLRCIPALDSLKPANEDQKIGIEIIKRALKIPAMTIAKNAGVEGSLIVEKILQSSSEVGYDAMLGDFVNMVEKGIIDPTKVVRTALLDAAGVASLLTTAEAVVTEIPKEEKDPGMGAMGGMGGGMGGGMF
UniProt O60678: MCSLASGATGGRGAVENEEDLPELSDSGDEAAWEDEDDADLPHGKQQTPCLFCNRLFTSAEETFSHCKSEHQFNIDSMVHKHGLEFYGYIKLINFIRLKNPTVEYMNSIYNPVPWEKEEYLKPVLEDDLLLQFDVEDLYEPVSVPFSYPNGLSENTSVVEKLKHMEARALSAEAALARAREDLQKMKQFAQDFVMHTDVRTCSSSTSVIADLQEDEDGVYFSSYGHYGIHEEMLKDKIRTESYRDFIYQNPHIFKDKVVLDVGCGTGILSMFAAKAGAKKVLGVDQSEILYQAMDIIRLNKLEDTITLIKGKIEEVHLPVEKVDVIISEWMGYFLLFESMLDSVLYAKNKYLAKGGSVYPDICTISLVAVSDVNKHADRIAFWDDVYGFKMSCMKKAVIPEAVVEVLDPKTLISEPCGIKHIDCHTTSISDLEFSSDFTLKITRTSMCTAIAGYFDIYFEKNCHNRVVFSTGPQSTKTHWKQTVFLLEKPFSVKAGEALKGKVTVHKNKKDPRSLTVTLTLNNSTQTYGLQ
UniProt P10809, residues 27-573: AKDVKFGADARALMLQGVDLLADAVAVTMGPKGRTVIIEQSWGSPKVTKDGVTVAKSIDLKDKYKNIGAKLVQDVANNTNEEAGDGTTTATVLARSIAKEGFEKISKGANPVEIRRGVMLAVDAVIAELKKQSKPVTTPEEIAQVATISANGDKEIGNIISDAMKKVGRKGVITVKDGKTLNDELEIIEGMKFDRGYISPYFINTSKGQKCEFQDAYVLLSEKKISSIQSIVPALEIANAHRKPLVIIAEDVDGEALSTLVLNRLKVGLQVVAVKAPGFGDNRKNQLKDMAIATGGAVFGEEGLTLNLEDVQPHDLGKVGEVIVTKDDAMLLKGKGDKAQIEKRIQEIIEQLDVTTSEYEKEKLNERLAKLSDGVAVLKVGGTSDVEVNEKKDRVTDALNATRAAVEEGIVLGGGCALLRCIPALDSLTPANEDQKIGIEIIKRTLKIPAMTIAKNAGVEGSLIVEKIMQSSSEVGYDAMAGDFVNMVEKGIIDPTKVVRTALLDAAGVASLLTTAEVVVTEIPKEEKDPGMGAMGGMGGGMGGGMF

Key:
[1] = target: protein arginine methyltransferase 3 (PRMT3), mouse, in Hepa1-6 cells (mouse (endogenous in Hepa1-6)) (UniProt Q922H1); assay: co-IP; reciprocal co-IP of endogenous PRMT3 and HSP60 from PLC-8024 and Hepa1-6 lysates (2 mg lysate, antibody overnight at 4 °C, protein A/G agarose, 3 washes), western blot
[2] = target: HSP60 (encoded by the HSPD1 gene), mouse, in Hepa1-6 cells (mouse (endogenous in Hepa1-6)) (UniProt P63038); assay: cross-linking; cells (PLC-8024, Hepa1-6; control, Prmt3-KO or SGC707-treated) incubated with 1 mM BS3 for 15 min at room temperature, quenched with Tris-HCl pH 7.5, lysed, western blot for HSP60; multimers are bands over 180 KD, monomers at 60 KD
[3] = target: protein arginine methyltransferase 3 (PRMT3), human, in PLC-8024 cells (human (endogenous in PLC-8024)) (UniProt O60678); assay: co-IP; reciprocal co-IP of endogenous PRMT3 and HSP60 from PLC-8024 and Hepa1-6 lysates (2 mg lysate, antibody overnight at 4 °C, protein A/G agarose, 3 washes), western blot

| Substance | binding [1] | binding [2] | binding [3] |
| --- | --- | --- | --- |
| HSP60 (encoded by the HSPD1 gene), mouse, in Hepa1-6 cells (from UniProt P63038 27-573) | binds | binds | – |
| HSP60 (encoded by the HSPD1 gene), human, in PLC-8024 cells (from UniProt P10809 27-573) | – | – | binds |
